Drawing on PubChem BioAssay AID292 (DTP/NCI, 2004), this text covers T/C and survivor count for 15 compounds.

This test deals with B6C3F1 mice, ip Sarcoma M5076, median survival T/C. As to the kind of experiment: NCI In Vivo Anticancer Drug Screen. Data for tumor model Sarcoma M5076 (intraperitoneal) in B6C3F1 mice. To be noted: T/C endpoint: median survival time, higher T/C = longer survival. In a few lines: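 Mice carrying the transplanted tumour received compound treatment. Survival was recorded, and each value is the treated-group measurement divided by that of the vehicle-dosed control group.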

Where [1] appears, read: dose: 400.0 mg/kg/injection, schedule: Q04DX004 (ip), vehicle: Klucel (hydroxypropylcellulose) (HPC).
[2] abbreviates: dose: 800.0 mg/kg/injection, schedule: Q04DX004 (ip), vehicle: Klucel (hydroxypropylcellulose) (HPC).
Where [3] appears, read: dose: 50.0 mg/kg/injection, schedule: Q04DX004 (ip), vehicle: saline with Tween-80.
[4] abbreviates: dose: 100.0 mg/kg/injection, schedule: Q04DX004 (ip), vehicle: saline with Tween-80.
Setting [5] is: dose: 200.0 mg/kg/injection, schedule: Q04DX004 (ip), vehicle: saline with Tween-80.
Setting [6] is: dose: 400.0 mg/kg/injection, schedule: Q04DX004 (ip), vehicle: saline with Tween-80.
Where [7] appears, read: dose: 100.0 mg/kg/injection, schedule: Q04DX004 (ip), vehicle: Klucel (hydroxypropylcellulose) (HPC).
[8] abbreviates: dose: 200.0 mg/kg/injection, schedule: Q04DX004 (ip), vehicle: Klucel (hydroxypropylcellulose) (HPC).

The list shows only some results of the screen, not a fair sample: it gathers tests that were run many times, whatever their T/C, doses with no T/C, and many T/C values between a quarter and a half above the control. Further doses and runs are listed elsewhere. T/C is the treated group as % of the vehicle group. Some doses have a count of surviving animals in place of a T/C: the source holds a T/C of zero for them, seemingly a mark for toxic or unscored doses. Some survivor counts are full or nearly so, which does not show that the dose was tolerated: survival well below the control is almost never listed, so the zero probably covers shortened survival too. Survivors were counted at the toxicity check, usually on the fifth day, unless a day is given; later deaths do not show. Schedule codes are those of the source, taken here to give the interval after Q, in days (D) or hours (H), and the number of doses after X. Some entries hold several experiments; their values stand side by side, smallest first. For survival time, this PubChem deposit counts one and a half times the control or more as active, and values a quarter to a half above the control carry no call in these data; other NCI protocols may use other cut-offs. Brackets with × say how often a value occurs here. Some T/C values are followed by the survivors on the day toxicity was checked, most often the fifth; where none is given, no animal had died by that day.

For the compound `COc1cc2cc3c(c(O)c2c(O)c1/C=C/C(C)C)C(=O)CC(C)(OC(C)=O)C3` (stereo unspecified), the T/C was 99, 105, 111, 112 % of control (dose: 1.25 mg/kg/injection, schedule: Q01DX009 (ip), vehicle: Klucel (hydroxypropylcellulose) (HPC)); 104 [9 of 10 alive on day 14], 105 (2×), 113 % of control (dose: 2.5 mg/kg/injection, schedule: Q01DX009 (ip), vehicle: Klucel (hydroxypropylcellulose) (HPC)); 104, 114, 116, 117 % of control [9 of 10 alive on day 14] (dose: 5.0 mg/kg/injection, schedule: Q01DX009 (ip), vehicle: Klucel (hydroxypropylcellulose) (HPC)); 126 % of control (dose: 5.0 mg/kg/injection, schedule: Q04DX004 (ip), vehicle: Klucel (hydroxypropylcellulose) (HPC)); 132 % of control (dose: 10.0 mg/kg/injection, schedule: Q04DX004 (ip), vehicle: Klucel (hydroxypropylcellulose) (HPC)). The survivor count was 0 of 10 on day 14 and 9 of 10 on day 9 (dose: 10.0 mg/kg/injection, schedule: Q01DX009 (ip), vehicle: Klucel (hydroxypropylcellulose) (HPC)); 3 of 10 on day 14 (dose: 27.78 mg/kg/injection, schedule: Q04DX004 (ip), vehicle: Klucel (hydroxypropylcellulose) (HPC)).
In the case of `CN(C)CN1C(=O)S/C(=C2\C(=O)N(CN(C)C)c3ccccc32)C1=O`, the survivor count reads like this: under setting [1], 0 of 10 on day 14; under setting [2], 0 of 10 on day 14.
As to `CO[C@@]12[C@H](COC(N)=O)C3=C(C(=O)C(C)=C(N)C3=O)N1C[C@@H]1N[C@@H]12`, the T/C by setting is: (dose: 1.0 mg/kg/injection, schedule: Q04DX004 (ip), vehicle: saline, evaluated on day 60) 132 % of control; (dose: 1.0 mg/kg/injection, schedule: Q04DX004 (ip), vehicle: saline, evaluated on day 75) 133 % of control. The survivor count (dose: 8.0 mg/kg/injection, schedule: Q04DX004 (ip), vehicle: saline) is 0 of 10 on day 14 and 2 of 10 on day 14.
Consider `C[CH2][Sn]([Cl])([CH2]C)[c]1cc[c]([Sn]([Cl])([CH2]C)[CH2]C)cc1`, for which the survivor count (dose: 1.0 mg/kg/injection, schedule: Q04DX004 (ip), vehicle: Klucel (hydroxypropylcellulose) (HPC)) was 0 of 10 on day 14.
Turning to `Cc1ccc(C2C(C#N)C(=O)NC(=O)C2C#N)cc1` (stereo unspecified), the survivor count is on record as 5 of 10 on day 14 under setting [1] and 0 of 10 on day 14 under setting [2].
`CN=C(N)c1ccc(N=C(N)c2ccc(C(N)=Nc3ccc(C(N)=NC)cc3)cc2)cc1`: the T/C is, setting by setting: (dose: 10.8 mg/kg/injection, schedule: Q01DX005 (ip), vehicle: saline) 136 % of control; (dose: 30.0 mg/kg/injection, schedule: Q01DX005 (ip), vehicle: saline) 148 % of control (2×). The survivor count runs as follows: (dose: 50.0 mg/kg/injection, schedule: Q01DX005 (ip), vehicle: saline) 6 of 10 on day 14; (dose: 60.0 mg/kg/injection, schedule: Q01DX005 (ip), vehicle: saline) 1 of 10 on day 14; (dose: 60.0 mg/kg/injection, schedule: Q04DX004 (ip), vehicle: saline) 0 of 10 on day 14; (dose: 83.3 mg/kg/injection, schedule: Q01DX005 (ip), vehicle: saline) 0 of 10 on day 14; (dose: 120.0 mg/kg/injection, schedule: Q04DX004 (ip), vehicle: saline) 0 of 10 on day 14.
As to `CN=C(N)N/N=C(\C)c1ccc2sc3ccc(/C(C)=N/NC(N)=NC)cc3c2c1`, the T/C reads like this: under setting [3], 131 % of control; under setting [4], 132 % of control [9 of 10 alive on day 14]; under setting [5], 136 % of control. Also, the survivor count under setting [6] is given as 3 of 10 on day 14.
In the case of `COc1ccc(Nc2c3sc4cc(OC)ccc4nc-3c3ccccc3c2=O)cc1`, the survivor count runs as follows: (dose: 300.0 mg/kg/injection, schedule: Q04DX004 (ip), vehicle: saline with Tween-80) 9 of 10 on day 14; (dose: 600.0 mg/kg/injection, schedule: Q04DX004 (ip), vehicle: saline with Tween-80) 9 of 10 on day 14.
For `CC[C@@H](C)[C@@H]1NC(=O)C(NC(=O)C(CC(C)C)N(C)C(=O)C2CCCN2C(=O)C(C)O)C(C)OC(=O)C(Cc2ccc(OC)cc2)N(C)C(=O)C2CCCN2C(=O)C(CC(C)C)NC(=O)C(C)C(=O)C(C(C)C)OC(=O)C[C@H]1O` (stereo partly specified), the T/C is, setting by setting: (dose: 0.13 mg/kg/injection, schedule: Q04DX004 (ip), vehicle: distilled water + alcohol) 142 % of control [9 of 10 alive on day 14]; (dose: 0.22 mg/kg/injection, schedule: Q04DX004 (ip), vehicle: distilled water + alcohol) 136 and 144 % of control; (dose: 0.36 mg/kg/injection, schedule: Q04DX004 (ip), vehicle: distilled water + alcohol) 145 % of control; (dose: 0.6 mg/kg/injection, schedule: Q04DX004 (ip), vehicle: distilled water + alcohol) 136 % of control; (dose: 180.0 micrograms/kg/injection, schedule: Q04DX004 (ip), vehicle: distilled water + alcohol) 140 % of control; (dose: 360.0 micrograms/kg/injection, schedule: Q04DX004 (ip), vehicle: distilled water + alcohol) 149 % of control. In addition, under “dose: 720.0 micrograms/kg/injection, schedule: Q04DX004 (ip), vehicle: distilled water + alcohol”, the T/C is 140 % of control. In addition, the survivor count (dose: 1.0 mg/kg/injection, schedule: Q04DX004 (ip), vehicle: distilled water + alcohol) was 0 of 10 on day 14 and 1 of 10 on day 14.
On to `CCCCCCCCCCCC1NC(=S)NC(=O)C1C#N` (stereo unspecified), for which the survivor count reads like this: under setting [7], 10 of 10 on day 14; under setting [8], 10 of 10 on day 14; under setting [1], 8 of 10 on day 14; under setting [2], 0 of 10 on day 14.
Consider `C1OC1CO[C@@H]1CO[C@H]2[C@@H]1OC[C@H]2OCC1CO1` (stereo partly specified), for which the T/C (dose: 100.0 mg/kg/injection, schedule: Q04DX004 (ip), vehicle: saline) was 135 % of control. The survivor count (dose: 800.0 mg/kg/injection, schedule: Q04DX004 (ip), vehicle: saline) is 0 of 10 on day 14 and the survivor count (dose: 800.0 mg/kg/injection, schedule: Q04DX004 (ip), vehicle: suspension in saline) was 0 of 10 on day 9.
On to `O=S1(=O)CS(=O)(=O)OCCO1`, for which the T/C is 126 % of control (dose: 25.0 mg/kg/injection, schedule: Q01DX001 (oral), vehicle: Klucel (hydroxypropylcellulose) (HPC)) and 141 % of control (dose: 50.0 mg/kg/injection, schedule: Q01DX001 (oral), vehicle: Klucel (hydroxypropylcellulose) (HPC)). Also, the survivor count reads like this: (dose: 100.0 mg/kg/injection, schedule: Q01DX009 (oral), vehicle: Klucel (hydroxypropylcellulose) (HPC)) 4 of 10 on day 14; under setting [7], 1 of 10 on day 14 and 4 of 10 on day 14; (dose: 200.0 mg/kg/injection, schedule: Q01DX001 (oral), vehicle: Klucel (hydroxypropylcellulose) (HPC)) 2 of 10 on day 14; under setting [8], 0 of 10 on day 14; under setting [1], 0 of 10 on day 14.
Consider `CC1=CC(=NN=c2cc(C)n([O-])c(C)c2)C=C(C)[N+]1=O`, for which the T/C (dose: 800.0 mg/kg/injection, schedule: Q04DX004 (ip), vehicle: saline with Tween-80) was 125 % of control [7 of 10 alive on day 9].
Consider `CC1/C=C/C=C/CC/C=C/C=C/C=C/C=C/C(OC2OC(C)C(O)C(N)C2O)CC2OC(CC(O)C(O)CCC(O)CC(O)CC(O)CC(=O)OC(C)C(C)C1O)CC(O)C2C(=O)O` (stereo unspecified), for which the survivor count under setting [5] is 3 of 10 on day 14 and the survivor count under setting [6] was 2 of 10 on day 14.
With `CO[C@@]12[C@@H]3N[C@@H]3CN1C1=C(C(=O)C(N3CCCC3)=C(C)C1=O)[C@@H]2COC(N)=O`, the survivor count is 0 of 10 on day 14 (dose: 25.0 mg/kg/injection, schedule: Q04DX004 (ip), vehicle: saline with Tween-80); 0 of 10 on day 14 under setting [3]; 0 of 10 on day 14 under setting [4].
